Experimental data from patent publication US20120177601A1, “TREATMENT OF HEPATITIS C VIRUS INFECTIONS” (THE USA AS REPRESENTED BY THE SECRETARY OF THE DEPARTMENT …, priority 2009, published 2012).
For part of these data: Not every detail of the peptide structures is certain; ends, links or a residue may be inferred. For part of these data: At least one compound was matched to its structure with a doubt left. Non-standard residues stand in square brackets, D forms with d. Residues, ends and D or L forms follow the SMILES beside them. Dip = N[C@H](C(=O)O)C(c1ccccc1)c1ccccc1; Cha = N[C@@H](CC1CCCCC1)C(=O)O

Key:
[1] = tested on: NS5A and core protein in NS and FL replicons; experiment: Western blot / immunoprecipitation of HCV proteins in replicons; assay type: cell-based; conditions: 24 hr, BV 20 μM, BR 200 μM, FeCl2 100 mM as printed
Procedure: Western blot analysis. Western blots (WB) were performed as previously described using enhanced chemiluminescence for signal detection (ECLTM, Amersham) (Abdalla et al., 2005). Signal intensities were quantified using Image J software (NIH).
Immunoprecipitation of NS5A. Log-phase replicons were treated with various concentrations of BV for 48 hr, washed, lysed in cell lysis buffer (Cell Signaling Technology, Beverly, Mass.) and clarified by cold centrifugation (14,000×g for 10 min). An aliquot of supernatant containing 100 μg protein was incubated with 1 μg of HCV NS5A monoclonal antibody (Meridian Life Science, Saco, Me.) and 20 μl of rProtein G Agarose (Invitrogen, CA) overnight at 4° C. The agarose was collected by 3000×g spin, washed three times with ice-cold PBS, then dissolved in 40 μL 2× Laemmli sample buffer (Bio-Rad, CA) and assayed by WB.

[2] = tested on: HCV NS3/4A recombinant protease; conditions: manufacturer's value; read-out: IC50 value reported by the manufacturer; cited from earlier work

Structure (SMILES)	NS5A protein level (WB) ([1]; both replicon lines)	core protein level (WB) ([1]; full-length replicons)	IC50 [2]
C=CC1=C(C)/C(=C/c2[nH]c(Cc3[nH]c(/C=C4\NC(=O)C(C)=C4C=C)c(C)c3CCC(=O)O)c(CCC(=O)O)c2C)NC1=O [BR, Bilirubin]	decreased NS5A	reduced	
CC(=O)N[C@@H](CC(=O)O)C(=O)N[C@@H](CCC(=O)O)C(=O)N[C@H](C(=O)N[C@@H](CCC(=O)O)C(=O)N[C@@H](CC1CCCCC1)C(=O)N[C@@H](CS)C(=O)O)C(c1ccccc1)c1ccccc1 [AnaSpec #25346, Ac-DEDif-EchaC] (Ac-DE[Dip]E[Cha]C-OH)			5 µM
